These results are taken from US20240018213A1 (OHIO STATE INNOVATION FOUNDATION, published 2024).

Amino acid sequences for entries named in this document (tags omitted). Residues count along the entry.
UniProt Q01705, residues 19-1725: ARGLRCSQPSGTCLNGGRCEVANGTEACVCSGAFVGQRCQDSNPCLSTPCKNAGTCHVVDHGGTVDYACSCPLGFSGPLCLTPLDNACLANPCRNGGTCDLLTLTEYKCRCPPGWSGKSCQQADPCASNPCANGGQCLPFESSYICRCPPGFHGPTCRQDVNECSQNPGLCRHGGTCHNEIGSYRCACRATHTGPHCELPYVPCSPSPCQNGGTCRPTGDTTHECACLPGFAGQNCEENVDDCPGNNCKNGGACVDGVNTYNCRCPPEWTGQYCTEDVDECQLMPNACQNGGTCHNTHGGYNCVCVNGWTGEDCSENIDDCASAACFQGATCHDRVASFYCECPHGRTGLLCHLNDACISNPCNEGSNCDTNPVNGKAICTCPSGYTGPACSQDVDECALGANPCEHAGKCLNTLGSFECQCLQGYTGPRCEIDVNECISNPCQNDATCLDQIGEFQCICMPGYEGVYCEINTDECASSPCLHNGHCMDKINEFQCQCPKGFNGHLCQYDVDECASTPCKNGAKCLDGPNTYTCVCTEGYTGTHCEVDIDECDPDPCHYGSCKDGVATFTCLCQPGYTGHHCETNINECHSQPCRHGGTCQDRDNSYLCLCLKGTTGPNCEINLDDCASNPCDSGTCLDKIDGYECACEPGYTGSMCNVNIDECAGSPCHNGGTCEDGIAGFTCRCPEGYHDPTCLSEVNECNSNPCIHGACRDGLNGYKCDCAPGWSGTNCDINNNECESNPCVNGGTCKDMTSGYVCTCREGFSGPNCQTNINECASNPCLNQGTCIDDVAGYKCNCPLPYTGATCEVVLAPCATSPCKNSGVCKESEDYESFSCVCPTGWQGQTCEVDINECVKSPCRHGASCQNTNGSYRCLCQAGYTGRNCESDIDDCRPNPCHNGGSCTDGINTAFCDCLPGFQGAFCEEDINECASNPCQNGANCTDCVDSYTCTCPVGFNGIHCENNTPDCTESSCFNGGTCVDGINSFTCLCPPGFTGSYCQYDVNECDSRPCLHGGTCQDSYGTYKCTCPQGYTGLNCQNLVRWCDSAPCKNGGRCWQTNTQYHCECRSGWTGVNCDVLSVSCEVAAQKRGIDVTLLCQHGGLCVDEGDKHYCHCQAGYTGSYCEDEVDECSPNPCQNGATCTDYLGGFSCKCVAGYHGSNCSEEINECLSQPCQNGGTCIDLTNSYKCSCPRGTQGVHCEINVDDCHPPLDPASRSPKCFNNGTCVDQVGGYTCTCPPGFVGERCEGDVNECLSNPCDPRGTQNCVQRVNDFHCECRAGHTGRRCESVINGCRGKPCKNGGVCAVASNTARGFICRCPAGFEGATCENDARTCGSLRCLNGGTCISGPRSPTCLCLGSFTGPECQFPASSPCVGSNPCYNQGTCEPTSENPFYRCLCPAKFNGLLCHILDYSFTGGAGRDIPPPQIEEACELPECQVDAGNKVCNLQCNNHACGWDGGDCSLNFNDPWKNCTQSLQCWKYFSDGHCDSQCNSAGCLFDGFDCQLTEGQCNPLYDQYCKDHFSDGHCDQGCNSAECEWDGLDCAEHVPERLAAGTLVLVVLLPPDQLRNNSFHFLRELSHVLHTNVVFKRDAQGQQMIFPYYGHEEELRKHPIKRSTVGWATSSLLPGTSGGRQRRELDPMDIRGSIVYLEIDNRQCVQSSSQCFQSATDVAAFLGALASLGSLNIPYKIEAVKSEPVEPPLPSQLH

These are yes or no findings as the source states them, for the method shown. Some results given as binding are weak or reduced against the parent protein; the word gives no strength.

Assay [1] has as its target T1, mNotch1ECD-Fc (mouse, UniProt Q01705 19-1725).
T1 construct: extracellular domain; Immobilized on the SPR chip; also called mouse full length notch extracellular domain; not shown: Fc part
In words: Open SPR; mouse full length Notch extracellular domain (mNotch1ECD-Fc) immobilized, Tan 6 injected at 2.2, 0.45, 0.22, 0.11 and 0 µM (HBS buffer).

Assay [2] has as its target T1, mNotch1ECD-Fc. In words: SPR, mNotch1ECD-Fc immobilized. Background: In SPR one partner is held on a chip, and binding of the other changes the refractive index at the surface.

B1: MuDLL1.DSL-EGF12.Tan 6 (NL 99) (ligand)
chain: MAAHHHHHHGGENLYFQGFVCDEHYYGEGCSVFCRPRDDAFGHFTCGDRGEKMCDPGWKGQYCTDPICLPGCDDQHGYCDKPGECKCRVGWQGRYCDECIRYPGCLHGTCQQPWQCNCQEGWGGLFCNQGSSGSSGFVCDEHYYGEGCSVFCRPRDDAFGHFTCGDRGEKMCDPGWKGQYCTDPICLPGCDDQHGYCDKPGECKCRVGWQGRYCDECIRYPGCLHGTCQQPWQCNCQEGWGGLFCNQGSSGSSGFVCDEHYYGEGCSVFCRPRDDAFGHFTCGDRGEKMCDPGWKGQYCTDPICLPGCDDQHGYCDKPGECKCRVGWQGRYCDECIRYPGCLHGTCQQPWQCNCQEGWGGLFCNQGSSGSSGFVCDEHYYGEGCSVFCRPRDDAFGHFTCGDRGEKMCDPGWKGQYCTDPICLPGCDDQHGYCDKPGECKCRVGWQGRYCDECIRYPGCLHGTCQQPWQCNCQEGWGGLFCNQGSSGSSGFVCDEHYYGEGCSVFCRPRDDAFGHFTCGDRGEKMCDPGWKGQYCTDPICLPGCDDQHGYCDKPGECKCRVGWQGRYCDECIRYPGCLHGTCQQPWQCNCQEGWGGLFCNQGSSGSSGFVCDEHYYGEGCSVFCRPRDDAFGHFTCGDRGEKMCDPGWKGQYCTDPICLPGCDDQHGYCDKPGECKCRVGWQGRYCDECIRYPGCLHGTCQQPWQCNCQEGWGGLFCNQ
notes: also called DLL1 Tandem 6×; hexamer
Take B1: the binding result in the assay with mNotch1ECD-Fc [1] and with mNotch1ECD-Fc [2] was “binds” throughout.
